## Library screening results

Source: ChEMBL document CHEMBL3988442, “University of Dundee, Small-Polar-MMV Screening Library” (2021).

The filed quantity is “Percent Effect” (%). The record does not define 0% and 100%; most values in the screen are far below 50% and negative numbers occur (in some assays of this library far below -100). Compounds were drawn at random from those tested, without regard to their results.

Mtb growth Cornell: 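Whole-cell assay for inhibitors of Mycobacterium tuberculosis growth, labelled Cornell in the record; the read-out is not stated. The concentration is filed as 10 mM, unlikely as a test dose, so the dose is not known. Higher means stronger inhibition (inferred from two other growth screens of the library). About 53,000 compounds were tested under these conditions; 1.7% (about 900) showed 50% or more at least once.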
Mtb heat-shock: 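Assay on Mycobacterium tuberculosis, filed only as a heat shock assay from Cornell; the read-out is not stated. The concentration is filed as 10 mM, unlikely as a test dose, so the dose is not known. Higher reads as stronger inhibition (inferred: compounds with an IC50 in retests scored well above the rest). Of about 69,000 compounds tested this way, about 930 (1.4%) reached 50% or more in at least one test.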

{"smiles": "CN1CCN(C(=O)NC2CC2)Cc2cccnc21.O=C(O)C(F)(F)F", "Mtb growth Cornell": 22.95, "Mtb heat-shock": -12.4}
{"smiles": "CN(C)S(=O)(=O)N1CCC(c2ccnc(Nc3ccccn3)n2)C1", "stereo": "stereo not given", "Mtb growth Cornell": 6.902, "Mtb heat-shock": -9.2}
{"smiles": "CC1COCCN1Cc1nc(-c2ccc(Br)s2)no1", "stereo": "stereo not given", "Mtb growth Cornell": 4.027, "Mtb heat-shock": -11.88}
{"smiles": "N#CCCN(CC1CC1)Cn1cc(Cl)cn1", "Mtb growth Cornell": -37.65, "Mtb heat-shock": -2.067}
{"smiles": "O=C(Cn1cnc(-c2ccccc2)cc1=O)Nc1ccncc1", "Mtb growth Cornell": 3.524, "Mtb heat-shock": 22.82}
{"smiles": "CCS(=O)(=O)N1Cc2nnn(C)c2C(COCCN(C)C)C1.O=C(O)C(F)(F)F", "stereo": "stereo not given", "Mtb growth Cornell": 27.26, "Mtb heat-shock": -8.299}
{"smiles": "CS(=O)(=O)NCCCNC(=O)c1cccc(-n2cccc2)c1", "Mtb growth Cornell": -24.26, "Mtb heat-shock": 1.511}
{"smiles": "Cc1nc(NCCc2ccccc2)cc(C(=O)N2CCCCC2)n1", "Mtb growth Cornell": -12.22, "Mtb heat-shock": 8.787}
{"smiles": "C[C@@H]1CN(Cc2cc(C3CCCCC3)no2)CC[C@]1(C)O", "Mtb growth Cornell": -21.31, "Mtb heat-shock": -19.58}
{"smiles": "O=S(=O)(Cc1c(F)cccc1Cl)NCCCN1CCCCCC1", "Mtb heat-shock": 2.067}
{"smiles": "CN(CC(F)(F)F)C(=O)COc1nc(Cc2ccc(F)cc2)no1", "Mtb growth Cornell": -7.255, "Mtb heat-shock": -6.841}
{"smiles": "CNC(=O)[C@@H]1C[C@@H](N)CN1C(=O)CCSCc1ccc(F)cc1", "Mtb growth Cornell": 1.449, "Mtb heat-shock": -6.456}
{"smiles": "Cc1cc(CCC(N)=O)cc(C2CCCN2Cc2cnc(C)nc2)n1", "stereo": "stereo not given", "Mtb growth Cornell": -34.05, "Mtb heat-shock": 5.774}
{"smiles": "CC(C)CS(=O)(=O)Nc1ccc([C@H]2OCC(=O)N[C@@H]2CO)cc1", "Mtb growth Cornell": -18.03, "Mtb heat-shock": -13.29}
{"smiles": "COc1ccc(Cl)c(NCC(=O)NCC(=O)N2CCCC2)c1", "Mtb growth Cornell": 27.14, "Mtb heat-shock": 12.26}
{"smiles": "N#Cc1cccnc1N1CCN(S(=O)(=O)NCc2ccccc2)CC1", "Mtb growth Cornell": 4.07, "Mtb heat-shock": -3.366}
{"smiles": "CC(CNCc1ccc(Cl)c(Cl)c1)Oc1ccccn1.Cl", "stereo": "stereo not given", "Mtb heat-shock": 16.93}
{"smiles": "CCN1CCOCC2(CCCN(C(=O)c3cnccn3)C2)C1", "stereo": "stereo not given", "Mtb growth Cornell": -31.19, "Mtb heat-shock": 21.21}
{"smiles": "COCCc1noc(-c2cn(CCc3ccccc3)nn2)n1", "Mtb growth Cornell": 7.887, "Mtb heat-shock": 4.792}
{"smiles": "Fc1cccc(-c2nc(CN3CCOC(Cn4cccn4)C3)co2)c1", "stereo": "stereo not given", "Mtb growth Cornell": 11.57, "Mtb heat-shock": 21.33}
{"smiles": "CCC(=O)N1CCC1c1cc(NC2CCCC2)nc(C)n1", "stereo": "stereo not given", "Mtb growth Cornell": -6.797, "Mtb heat-shock": 3.165}
{"smiles": "O=C(NCCc1nncn1C1CC1)C1(Cc2ccccc2)CCC1", "Mtb growth Cornell": 2.546, "Mtb heat-shock": -22.55}
{"smiles": "CC(C)n1ccc2c(NC(=O)c3n[nH]c4c3CCC4)cccc21", "Mtb growth Cornell": 48.39, "Mtb heat-shock": 5.625}
{"smiles": "CSCC[C@@H](CO)Nc1ccc(-c2nc(-c3ccccc3F)no2)cn1", "Mtb growth Cornell": 32.75, "Mtb heat-shock": -33.46}
{"smiles": "CN(C)Cc1cn2c(n1)CN(CC1CCCC1)CC2.O=C(O)C(F)(F)F.O=C(O)C(F)(F)F", "Mtb growth Cornell": 5.947, "Mtb heat-shock": -21.9}
{"smiles": "NC(=O)COc1ccc(CNCc2c(F)cccc2F)cc1", "Mtb growth Cornell": 17.95, "Mtb heat-shock": 16.98}
{"smiles": "Cc1cc(N2CCCCCC2)n2nc(C)c(C)c2n1", "Mtb growth Cornell": 24.56, "Mtb heat-shock": 8.309}
{"smiles": "CS(=O)(=O)NC1CCN(C(=O)c2cnc(-c3cccnc3)nc2)CC1", "Mtb growth Cornell": 11.11, "Mtb heat-shock": 7.619}
{"smiles": "CCCC(NC(=O)c1cc(C)ccc1O)c1nnn[nH]1", "stereo": "stereo not given", "Mtb growth Cornell": -37.48, "Mtb heat-shock": -1.879}
{"smiles": "CN(CCn1ccc2ccccc21)C(=O)CS(C)(=O)=O", "Mtb growth Cornell": -34.27, "Mtb heat-shock": -20.39}
{"smiles": "CC(C)(C)n1ncc2c1CCCC2NCc1cccc2c1OCCO2", "stereo": "stereo not given", "Mtb growth Cornell": -20.66, "Mtb heat-shock": 3.598}
{"smiles": "CN(CC1CCCCO1)c1ncnc2cc(F)ccc12", "stereo": "stereo not given", "Mtb growth Cornell": 14.85, "Mtb heat-shock": -3.98}
{"smiles": "Cc1[nH]c(=O)sc1S(=O)(=O)N1CCCC1C(=O)NCc1ccsc1", "stereo": "stereo not given", "Mtb growth Cornell": 27.76, "Mtb heat-shock": -6.671}
{"smiles": "Cc1ncsc1CCN(C)C(=O)CN1CC2(CCCC2)CC1=O", "Mtb heat-shock": 8.047}

Once more, the final 4:

* CC(C)(C)n1ncc2c1CCCC2NCc1cccc2c1OCCO2 (stereo not given) : Mtb growth Cornell: -20.66%; Mtb heat-shock: 3.598%
* CN(CC1CCCCO1)c1ncnc2cc(F)ccc12 (stereo not given) : Mtb growth Cornell: 14.85%; Mtb heat-shock: -3.98%
* Cc1[nH]c(=O)sc1S(=O)(=O)N1CCCC1C(=O)NCc1ccsc1 (stereo not given) : Mtb growth Cornell: 27.76%; Mtb heat-shock: -6.671%
* Cc1ncsc1CCN(C)C(=O)CN1CC2(CCCC2)CC1=O : Mtb heat-shock: 8.047%